Measurements published in paper PMC2635752.
Results are given in words; binding and its absence hold for the method and conditions named. In cells and extracts the contact can be indirect.

Chains of the proteins cited; added tags and fusions are not shown. Lines headed by an entry give the natural chain unless they say otherwise; changes in a name come on top.
UniProt P06837: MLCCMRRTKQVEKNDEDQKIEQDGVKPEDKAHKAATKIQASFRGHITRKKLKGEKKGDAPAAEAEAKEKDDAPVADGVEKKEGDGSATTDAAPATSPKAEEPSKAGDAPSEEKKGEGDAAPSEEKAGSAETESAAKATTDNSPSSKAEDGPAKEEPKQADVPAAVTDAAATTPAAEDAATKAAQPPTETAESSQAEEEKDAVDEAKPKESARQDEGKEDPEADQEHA
UniProt P60879: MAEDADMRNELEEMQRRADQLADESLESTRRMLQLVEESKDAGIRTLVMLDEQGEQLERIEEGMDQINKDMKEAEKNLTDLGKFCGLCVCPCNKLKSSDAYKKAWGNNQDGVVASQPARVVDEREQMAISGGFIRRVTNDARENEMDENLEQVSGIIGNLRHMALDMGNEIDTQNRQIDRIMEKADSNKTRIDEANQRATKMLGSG

Experiments:
[1] = molecular target: growth-associated protein GAP-43 (mouse (endogenous in N1E-115)) (UniProt P06837); experiment: cross-linking + co-IP; 1 mM DSP on living cells, SDS lysis, 100,000 × g supernatant; rabbit polyclonal anti-GAP-43 and protein A-agarose; two-dimensional gel
[2] = molecular target: growth-associated protein GAP-43 (mouse (endogenous in N1E-115)) (UniProt P06837); experiment: cross-linking + co-IP; DMSO or 1 mM DSP on living cells; lysis in NP-40 substitute buffer; nuclei, cytoskeleton and membrane skeleton removed by centrifugation; anti-GAP-43 immunoprecipitation from the 100,000 × g supernatant; two-dimensional gel
[3] = molecular target: growth-associated protein GAP-43 (mouse (endogenous in N1E-115)) (UniProt P06837); experiment: cross-linking + co-IP; cells lysed in 1% NP-40 substitute buffer first; 1 mM DSP added to the low-speed supernatant (15 min, room temperature); glycine and SDS added; 100,000 × g supernatant; monoclonal anti-GAP-43; two-dimensional gel; spots counted, calmodulin cpm divided by 9/4
[4] = molecular target: growth-associated protein GAP-43 (mouse (endogenous in N1E-115)) (UniProt P06837); experiment: cross-linking + co-IP; 1 mM DSP added to living [35S]-labeled differentiated N1E-115 cells (15 min, room temperature, KRH); lysis in SDS, then NP-40 lysis buffer; 100,000 × g supernatant; monoclonal anti-GAP-43 (clone 91E12) and protein G plus agarose; crosslinks cleaved; two-dimensional gel, fluorography; spots cut out and counted, calmodulin cpm divided by 9/4

Measured: binding

synaptosomal associated protein SNAP-25 (from UniProt P60879 1-206)
no binding: [1] | [2] | [3] | [4]

B1: Rab5 effector protein rabaptin-5 (protein, UniProt O35551 1-862)
chain: MAQPGPAPQPDVSLQQRVAELEKINAEFLRAQQQLEQEFNQKRAKFKELYLAKEEDLKRQNAVLQAAQDDLGHLRTQLWEAQAEMENIKAIATVSENTKQEAIDEVKRQWREEVASLQAIMKETVRDYEHQFHLRLEQERAQWAQYRESAEREIADLRRRLSEGQEEENLENEMKKAQEDAEKLRSVVMPMEKEIAALKDKLTEAEDKIKELEASKVKELNHYLEAEKSCRTDLEMYVAVLNTQKSVLQEDAEKLRKELHEVCHLLEQERQQHNQLKHTWQKANDQFLESQRLLMRDMQRMEIVLTSEQLRQVEELKKKDQEEDEQQRVNKRKDNKKTDTEEEVKIPVVCALTQEESSTPLSNEEEHLDSTHGSVHSLDADLMLPSGDPFSKSDNDMFKDGLRRAQSTDSLGTSSSLQSKALGYNYKAKSAGNLDESDFGPLVGADSVSENFDTVSLGSLQMPSGFMLTKDQERAIKAMTPEQEETASLLSSVTQGMESAYVSPSGYRLVSETEWNLLQKEVHNAGNKLGRRCDMCSNYEKQLQGIQIQEAETRDQVKKLQLMLRQANDQLEKTMKEKQELEDFLKQSAEDSSHQISALVLRAQASEVLLEELQQSFSQAKRDVQEQMAVLMQSREQVSEELVRLQKDNDSLQGKHSLHVSLQLAEDFILPDTVEVLRELVLKYRENIVHVRTAADHMEEKLKAEILFLKEQIQAEQCLKENLEETLQLEIENCKEEIASISSLKAELERIKVEKGQLESTLREKSQQLESLQEMKVNLEEQLKKETAAKATVEQLMFEEKNKAQRLQTELDVSEQVQRDFVKLSQTLQVQLERIRQADSLERIRAILNDTKLTDINQLPET
no binding: [1] | [2] | [3] | [4]
